Laboratory results: publication PMC5159797
Results are given in words; binding and its absence hold for the method and conditions named. Binding seen in cells or lysates may run through a third protein. Some entries that bind do so weakly or less than the wild type. For part of these data: Where a sequence is shown, tags or fusion partners need not be part of it.

Chains of the proteins cited; added tags and fusions are not shown.
UniProt Q8N4N8: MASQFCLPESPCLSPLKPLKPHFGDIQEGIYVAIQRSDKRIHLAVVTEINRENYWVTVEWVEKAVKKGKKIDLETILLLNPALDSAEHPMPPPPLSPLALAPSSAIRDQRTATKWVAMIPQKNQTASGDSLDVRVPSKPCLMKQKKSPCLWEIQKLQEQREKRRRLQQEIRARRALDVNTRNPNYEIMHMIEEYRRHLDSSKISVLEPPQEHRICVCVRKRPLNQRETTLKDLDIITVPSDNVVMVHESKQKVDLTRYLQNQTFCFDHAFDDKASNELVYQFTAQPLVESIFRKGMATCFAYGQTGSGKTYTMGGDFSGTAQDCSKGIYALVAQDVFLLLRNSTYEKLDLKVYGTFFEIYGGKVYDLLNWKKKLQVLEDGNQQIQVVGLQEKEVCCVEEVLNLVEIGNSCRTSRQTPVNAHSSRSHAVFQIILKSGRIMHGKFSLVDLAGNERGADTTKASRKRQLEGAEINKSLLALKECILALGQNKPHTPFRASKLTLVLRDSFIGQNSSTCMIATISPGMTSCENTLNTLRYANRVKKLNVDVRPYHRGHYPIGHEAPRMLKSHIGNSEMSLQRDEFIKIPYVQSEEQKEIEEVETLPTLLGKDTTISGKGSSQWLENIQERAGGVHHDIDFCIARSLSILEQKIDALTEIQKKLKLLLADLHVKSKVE
UniProt P49841: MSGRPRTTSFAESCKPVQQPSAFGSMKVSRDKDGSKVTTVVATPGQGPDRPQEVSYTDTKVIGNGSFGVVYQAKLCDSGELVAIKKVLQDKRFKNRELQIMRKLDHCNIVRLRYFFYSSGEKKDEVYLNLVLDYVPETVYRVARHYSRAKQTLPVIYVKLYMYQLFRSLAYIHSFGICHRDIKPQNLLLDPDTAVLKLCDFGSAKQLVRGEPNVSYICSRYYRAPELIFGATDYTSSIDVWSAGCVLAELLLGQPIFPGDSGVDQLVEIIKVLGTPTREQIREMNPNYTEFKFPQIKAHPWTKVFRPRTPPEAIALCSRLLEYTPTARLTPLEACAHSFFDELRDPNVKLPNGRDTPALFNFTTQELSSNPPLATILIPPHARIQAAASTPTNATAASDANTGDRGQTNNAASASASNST
UniProt Q15691: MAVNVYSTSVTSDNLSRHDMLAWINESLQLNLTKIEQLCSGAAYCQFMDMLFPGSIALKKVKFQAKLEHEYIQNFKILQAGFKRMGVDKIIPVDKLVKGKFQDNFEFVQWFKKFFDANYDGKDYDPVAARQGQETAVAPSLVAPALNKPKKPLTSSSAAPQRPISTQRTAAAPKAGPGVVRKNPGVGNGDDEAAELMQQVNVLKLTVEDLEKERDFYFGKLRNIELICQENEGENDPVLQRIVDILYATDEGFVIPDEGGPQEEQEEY

Tests used:
FLAG-SKAP = molecular target: T1, FLAG-SKAP (UniProt Q9Y448); assay: co-IP; HEK293T co-transfected with FLAG-SKAP and GFP-tagged proteins; anti-FLAG antibody-agarose beads; lysis buffer 50 mM HEPES pH 7.4, 100 mM NaCl, 2 mM EGTA, 1 mM MgCl2, 1 mM DTT, 0.1% Triton X-100; also after SB415286 for 30 min; anti-GFP and anti-FLAG blots
T1 sequence: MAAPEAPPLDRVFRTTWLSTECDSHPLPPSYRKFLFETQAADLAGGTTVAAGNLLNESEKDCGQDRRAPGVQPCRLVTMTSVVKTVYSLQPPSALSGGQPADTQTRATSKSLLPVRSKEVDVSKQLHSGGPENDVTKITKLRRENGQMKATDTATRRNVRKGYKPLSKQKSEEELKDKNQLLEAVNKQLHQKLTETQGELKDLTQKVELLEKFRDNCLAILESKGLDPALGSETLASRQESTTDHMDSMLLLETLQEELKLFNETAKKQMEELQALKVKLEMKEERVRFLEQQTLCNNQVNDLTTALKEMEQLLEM

GST-SKAP = molecular target: T2, GST-SKAP (UniProt Q9Y448); assay: pull-down; GST fusion protein-bound sepharose beads incubated 2 h at 4 °C with HEK293T cell lysates containing GFP-tagged proteins; PBS, 0.1% Triton X-100; anti-GFP blot; only the target purified
T2 sequence: T1 sequence

[1] = molecular target: T3, SKAP (small kinetochore-associated protein), endogenous (human (endogenous in HeLa)) (UniProt Q9Y448); assay: co-IP; HeLa cell lysates (synchronized in mitosis; also unsynchronized, prometaphase or metaphase) incubated with SKAP rabbit IgG pre-bound to Protein A/G-agarose, control IgG; Western blot
T3 sequence: T1 sequence

binding (FLAG-SKAP)	binding (GST-SKAP)	binding [1]	Substance
binds	binds	–	GFP-Kif2b (from UniProt Q8N4N8 1-673)
–	–	binds	GSK3β, endogenous (from UniProt P49841 1-420) (enzyme)
–	–	binds	EB1, endogenous (from UniProt Q15691 1-268)
–	–	binds	Kif2b, endogenous (from UniProt Q8N4N8 1-673)
binds	–	–	GFP-GSK3β (from UniProt P49841 1-420) (enzyme)
